{"source": "patent US20120020948A1", "about": "“DAG-TYPE AND INDIRECT PROTEIN KINASE C ACTIVATORS AND ANTICOAGULANT FOR THE TREATMENT OF STROKE” (priority 2010, published 2012)", "origin": "cited, not measured here", "tested_on": "PKC", "note": "For at least one compound, name, drawing or mass did not settle the structure."}
{"compound": "CC(C)=CCC/C(C)=C/CC/C(C)=C/CSc1nc[nH]n1", "note": "[Farnesyl thiotriazole]", "values": [{"measurement": "potency relative to dioleoylglycerol", "result": "equipotent with dioleoylglycerol"}]}
